Results on one sequence are retold here after US9737587B2 (The Research Foundation for Mental Hygiene, Inc., priority 2014, dated 2017).

The nature of this data set: peptide synthesis. The settings on record: whole synthesis.

No end group written: not given here.

Take VGDGGLFEKKL: the “final HPLC purity” value is on record as over 96%.
